Some of these results come from one statement about several compounds together.
Tested on: RS112 strain of S. cerevisiae
Experiment: Classical DEL plating assay, radioprotection at 2000Gy irradiation
Assay type: cell-based, Saccharomyces cerevisiae
Settings: FIG. 4
Experimental: All DEL assays utilize the established methodology of “recombination” (deletion of the interruption segment and consequent end joining of the adjacent sequences) of a disrupted histidine gene that renders yeast cells exposed to radiation capable of growing on media lacking this amino acid. In the classical DEL assay radiation sensitive RS112 strain of S. cerevisiae is added to the compounds of interest suspended in complete media, incubated for 2 hrs, and irradiated at 2000Gy. The cells are then plated onto full (+13) and lacking histidine (−His) agar plates. After incubation the colonies are scored and recombination events are calculated. The efficacy of the compound is evaluated as a reduced fraction of DEL recombinations in comparison to that of irradiated controls without treatment. Radioprotectors decrease the frequency of such recombination frequencies after radiation exposure.
A plasmid with an internal fragment of the HIS3 gene, which is responsible for histidine synthesis in yeast, without which cells cannot survive in media lacking histidine, has been integrated at the HIS3 locus, yielding an integrative disruption of the HIS3 gene (Schiestl, R. H., et al., Genetics, 1988. 119(2): p. 237-47). […]

Compound	percent survival of RS112 cells, difference to irradiated control
COc1ccc2cc(-c3nc4ccc(C)cn4c3NCc3ccco3)c(=O)[nH]c2c1 [Yel002]	statistically significant
Cc1sc(NC(=O)CN(Cc2ccc(F)cc2)C(=O)c2ccccc2)c(C(N)=O)c1C [Yel001]	statistically significant

From patent US9045474B2, “Compounds and compositions for mitigating tissue damage and lethality” (The Regents of the University of California, priority 2010, dated 2015)
